Laboratory results published in paper PMC12805371.
Results are given in words; binding and its absence hold for the method and conditions named. In cells and extracts the contact can be indirect. Here binding means that the protein was enriched with, or labelled near, the bait; the list need not be complete. No binding means not detected with the bait.

Sequences of proteins named here, by UniProt entry; tags and fusion partners are left off. A change or cut given only in a name is not applied to a line headed by its entry. Residues count along the entry.
UniProt O75808: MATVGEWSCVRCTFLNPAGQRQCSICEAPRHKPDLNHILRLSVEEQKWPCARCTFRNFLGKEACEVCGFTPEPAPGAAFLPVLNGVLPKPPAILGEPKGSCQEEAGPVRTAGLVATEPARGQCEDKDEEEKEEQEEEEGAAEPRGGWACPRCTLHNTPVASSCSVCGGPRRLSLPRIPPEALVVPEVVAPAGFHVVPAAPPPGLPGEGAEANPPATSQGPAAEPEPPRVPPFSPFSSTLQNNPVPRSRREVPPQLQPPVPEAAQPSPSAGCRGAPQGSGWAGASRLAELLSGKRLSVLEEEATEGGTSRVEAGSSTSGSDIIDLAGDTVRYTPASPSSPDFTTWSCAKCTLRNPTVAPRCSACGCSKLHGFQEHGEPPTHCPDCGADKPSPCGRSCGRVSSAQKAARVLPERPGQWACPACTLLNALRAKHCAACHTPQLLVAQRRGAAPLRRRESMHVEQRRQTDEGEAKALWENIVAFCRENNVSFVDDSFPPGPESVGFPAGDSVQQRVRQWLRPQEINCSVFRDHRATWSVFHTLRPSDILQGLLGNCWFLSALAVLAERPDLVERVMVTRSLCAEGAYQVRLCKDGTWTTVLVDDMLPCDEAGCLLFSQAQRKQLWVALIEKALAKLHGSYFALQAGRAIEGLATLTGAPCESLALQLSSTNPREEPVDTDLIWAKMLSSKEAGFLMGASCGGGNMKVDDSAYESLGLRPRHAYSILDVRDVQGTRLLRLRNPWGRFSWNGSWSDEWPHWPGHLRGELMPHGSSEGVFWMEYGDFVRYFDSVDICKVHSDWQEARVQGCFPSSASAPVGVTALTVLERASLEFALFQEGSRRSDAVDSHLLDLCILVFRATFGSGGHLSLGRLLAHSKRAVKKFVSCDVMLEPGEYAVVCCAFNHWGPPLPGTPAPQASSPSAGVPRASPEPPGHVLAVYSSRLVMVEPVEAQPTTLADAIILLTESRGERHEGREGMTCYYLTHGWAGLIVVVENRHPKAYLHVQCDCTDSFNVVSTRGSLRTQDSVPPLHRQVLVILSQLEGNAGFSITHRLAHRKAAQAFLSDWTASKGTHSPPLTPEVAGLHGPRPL
UniProt P22223, residues 108-829: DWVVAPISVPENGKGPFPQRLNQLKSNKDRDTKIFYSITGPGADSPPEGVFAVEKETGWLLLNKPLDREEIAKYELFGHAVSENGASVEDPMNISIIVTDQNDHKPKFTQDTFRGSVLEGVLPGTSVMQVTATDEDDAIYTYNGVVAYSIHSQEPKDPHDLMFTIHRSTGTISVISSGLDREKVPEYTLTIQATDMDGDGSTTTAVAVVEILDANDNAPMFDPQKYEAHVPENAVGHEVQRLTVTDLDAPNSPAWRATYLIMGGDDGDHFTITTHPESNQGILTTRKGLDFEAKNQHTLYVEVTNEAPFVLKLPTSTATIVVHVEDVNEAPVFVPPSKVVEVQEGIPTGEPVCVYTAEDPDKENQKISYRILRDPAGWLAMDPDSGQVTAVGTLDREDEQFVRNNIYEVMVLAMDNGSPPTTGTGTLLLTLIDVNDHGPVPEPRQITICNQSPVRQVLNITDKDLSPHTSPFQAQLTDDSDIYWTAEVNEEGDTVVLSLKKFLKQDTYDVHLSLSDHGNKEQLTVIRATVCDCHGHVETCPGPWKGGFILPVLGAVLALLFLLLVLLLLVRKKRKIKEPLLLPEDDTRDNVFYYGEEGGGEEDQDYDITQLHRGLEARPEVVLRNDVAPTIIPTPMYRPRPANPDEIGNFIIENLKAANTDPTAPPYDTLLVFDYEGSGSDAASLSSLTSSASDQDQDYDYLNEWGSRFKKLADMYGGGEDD
UniProt P35221: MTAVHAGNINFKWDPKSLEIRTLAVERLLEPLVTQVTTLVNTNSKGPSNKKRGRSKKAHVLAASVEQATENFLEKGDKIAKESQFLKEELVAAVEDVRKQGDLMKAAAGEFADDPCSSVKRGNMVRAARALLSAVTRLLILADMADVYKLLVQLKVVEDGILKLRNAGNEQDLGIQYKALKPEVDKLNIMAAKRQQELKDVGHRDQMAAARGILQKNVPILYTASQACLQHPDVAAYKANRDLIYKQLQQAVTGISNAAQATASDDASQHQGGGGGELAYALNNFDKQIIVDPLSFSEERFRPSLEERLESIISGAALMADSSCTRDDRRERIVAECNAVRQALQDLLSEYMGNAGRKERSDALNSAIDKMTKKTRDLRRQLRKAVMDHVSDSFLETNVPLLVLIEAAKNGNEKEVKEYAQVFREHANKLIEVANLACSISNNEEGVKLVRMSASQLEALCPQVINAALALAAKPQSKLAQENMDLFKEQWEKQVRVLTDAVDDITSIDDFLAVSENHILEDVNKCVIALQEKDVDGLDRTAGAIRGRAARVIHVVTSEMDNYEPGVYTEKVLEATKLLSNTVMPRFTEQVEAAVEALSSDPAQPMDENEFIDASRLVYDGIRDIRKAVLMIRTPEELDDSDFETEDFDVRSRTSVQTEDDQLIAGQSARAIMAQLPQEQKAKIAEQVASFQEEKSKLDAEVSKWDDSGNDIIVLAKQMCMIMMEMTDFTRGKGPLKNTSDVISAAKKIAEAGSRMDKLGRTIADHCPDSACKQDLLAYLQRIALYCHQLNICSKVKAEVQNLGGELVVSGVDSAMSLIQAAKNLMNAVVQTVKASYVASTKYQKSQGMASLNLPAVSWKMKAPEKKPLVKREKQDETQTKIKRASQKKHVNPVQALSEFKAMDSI

Columns and labels:
[1] = biological target: FLAG-tagged protease-inactive CAPN15C552S (human) (UniProt O75808); experiment: affinity purification with mass spectrometry; anti-FLAG immunoprecipitates from KO, WTtg, CStg and NEtg cells; in-gel digestion, LC-MS, intensity-based label-free quantification, biological duplicates
[2] = biological target: FLAG-tagged WT CAPN15 (human) (UniProt O75808); experiment: as above

binding [1]	binding [2]	Molecule
binds		P-cadherin/CDH3 (from UniProt P22223 108-829)
binds		α-catenin/CTNNA1 (from UniProt P35221 1-906)
no binding	no binding	p120-catenin (protein, UniProt O60716 1-968) MDDSEVESTASILASVKEQEAQFEKLTRALEEERRHVSAQLERVRVSPQDANPLMANGTLTRRHQNGRFVGDADLERQKFSDLKLNGPQDHSHLLYSTIPRMQEPGQIVETYTEEDPEGAMSVVSVETSDDGTTRRTETTVKKVVKTVTTRTVQPVAMGPDGLPVDASSVSNNYIQTLGRDFRKNGNGGPGPYVGQAGTATLPRNFHYPPDGYSRHYEDGYPGGSDNYGSLSRVTRIEERYRPSMEGYRAPSRQDVYGPQPQVRVGGSSVDLHRFHPEPYGLEDDQRSMGYDDLDYGMMSDYGTARRTGTPSDPRRRLRSYEDMIGEEVPSDQYYWAPLAQHERGSLASLDSLRKGGPPPPNWRQPELPEVIAMLGFRLDAVKSNAAAYLQHLCYRNDKVKTDVRKLKGIPVLVGLLDHPKKEVHLGACGALKNISFGRDQDNKIAIKNCDGVPALVRLLRKARDMDLTEVITGTLWNLSSHDSIKMEIVDHALHALTDEVIIPHSGWEREPNEDCKPRHIEWESVLTNTAGCLRNVSSERSEARRKLRECDGLVDALIFIVQAEIGQKDSDSKLVENCVCLLRNLSYQVHREIPQAERYQEAAPNVANNTGPHAASCFGAKKGKDEWFSRGKKPIEDPANDTVDFPKRTSPARGYELLFQPEVVRIYISLLKESKTPAILEASAGAIQNLCAGRWTYGRYIRSALRQEKALSAIADLLTNEHERVVKAASGALRNLAVDARNKELIGKHAIPNLVKNLPGGQQNSSWNFSEDTVISILNTINEVIAENLEAAKKLRETQGIEKLVLINKSGNRSEKEVRAAALVLQTIWGYKELRKPLEKEGWKKSDFQVNLNNASRSQSSHSYDDSTLPLIDRNQKSDKKPDREEIQMSNMGSNTKSLDNNYSTPNERGDHNRTLDRSGDLGDMEPLKGTTPLMQDEGQESLEEELDVLVLDDEGGQVSYPSMQKI
